Percent effect of library compounds

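Assay of Toxoplasma gondii numbers, read through their beta-galactosidase reporter with a colour substrate. Tested at 50 µM. Higher reads as fewer parasites (inferred from which compounds were picked for retests). Of about 18,000 compounds tested this way, about 170 (0.94%) reached 50% or more in at least one test.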

Results are given as percent effect.
The controls that fix the scale are not given in the record; negative values are as filed.
Compounds were drawn at random from those tested, without regard to their results.

Nc1nc(-c2ccc3c(c2)CCCC(=O)N3)cs1 read 4.265%.
Cc1nc(C)n(CCNC(=O)C2CCCCCN2C)n1 (stereo unspecified) read -17.3%.
Cc1cc(NC(=O)CN(C)CC(=O)NC2CC2)on1 read -5.304%.
OC1CCN(Cc2ccc3c(c2)CCC3)C1 (stereo unspecified) read 11.75%.
COCCC(=O)N1C[C@@H](CO)[C@H](N(C)C)C1 read 12.28%.
Cc1nc(CCNC(=O)CNC(=O)N(C)C)sc1C read 11.59%.
O=S(=O)(NC1CCCNC1)c1ccccc1 (stereo unspecified) read 0.3763%.
Cc1cnccc1NCCNC(=O)CCC(F)(F)F read -2.768%.
CC(C)n1nnnc1SCC(O)C(F)(F)F (stereo unspecified) read 4.181%.
O=C(NCCCn1cccn1)N1CCSCC1 read 12.95%.
Cn1ncc(C#N)c1Cl read -3.939%.
CCc1ccc(CNC(=O)c2ccc(C(N)=O)cc2)s1 read -7.286%.
COCCC(=O)c1ccc(F)cc1 read -10.75%.
CN1CCN(C(=O)Cc2cn(C)c3ccccc23)CC1 read 9.351%.
CN(C)S(=O)(=O)N1C[C@@H](CN2CCOCC2)[C@@H](CO)C1 read -3.171%.
COc1cccc([C@@H]2C[C@H]2N)c1 read -5.795%.
Cn1ccnc1C1CCCN1C(=O)c1ccccc1F (stereo unspecified) read 2.634%.
CC1(C)CCCN(C(=O)CCS(C)(=O)=O)CC1 read -2.783%.
NCc1ccc2c(c1)C(=O)NCC2 read 0.6946%.
CN(C(=O)C1CCOC1)c1ncc(Cl)cc1Cl (stereo unspecified) read 7.402%.
NC(=O)C1CCCCN1CC(=O)Nc1cccc(F)c1 (stereo unspecified) read -21.82%.
CCOc1ncccc1CNC(=O)c1sc(C)nc1C read -7.262%.
Cc1ccc(C(=O)N(C)CCCS(C)(=O)=O)cc1 read -7.99%.
CNS(=O)(=O)c1ccc(C(=O)Nc2ccc(F)cc2)o1 read -3.189%.
COc1cccc(CN(C)C(=O)c2cscn2)n1 read -3.544%.
CN(Cc1ccco1)C(=O)NCc1cscn1 read -5.07%.
Nc1nc(CCC(=O)NCc2cn3c(n2)SCC3)cs1 read 1.432%.
CC(=O)NC(C)C(=O)N(C)Cc1ccsc1 (stereo unspecified) read 17.44%.
CC(CN)c1cccc(F)c1 (stereo unspecified) read 2.332%.
CC1=CC(=O)N(Cc2ccccc2)C1=O read -1.811%.
Cn1ncc2c(N3CCN(C(N)=O)CC3)ncnc21 read 4.087%.
CCCNC(=O)CNC(=O)Cc1c[nH]c2ccccc12 read -0.621%.
NC(=O)NCC(=O)NCc1cccc(Cl)c1 read -5.322%.
CC(C)(C)c1[nH][nH]c(=O)c1CCN read 1.183%.
O=C1CCNc2ccccc21 read -25.53%.
N#CCCn1ccc(=O)[nH]c1=O read -20.1%.
CC(C)c1ccn(C)n1 read 1.261%.
COC(=O)CN1CCN(c2cccc(F)c2C#N)CC1 read -0.576%.
NCCc1nc(C2CC2)cs1 read -4.535%.
Cc1noc(C)c1NC(=O)NC1CCN(C)CC1 read -4.521%.
COc1cc(C)cc(OC)c1O read -22.31%.
CC(=O)NCCCNC(=O)c1cc(F)cc(Br)c1 read 7.186%.
COc1ccc(S(=O)(=O)N2CCCN(C)CC2)cc1 read 6.419%.
COCC(=O)N1CCCN(CCC(C)SC)CC1 (stereo unspecified) read -14.31%.
Cc1cc(NC(=O)CSCC(=O)N2CCC2)no1 read -0.9558%.
CCNCC(O)COc1ccc(C)cc1OC (stereo unspecified) read 9.284%.

Once more, the final 5:

Compound,percent effect
CC(=O)NCCCNC(=O)c1cc(F)cc(Br)c1,7.186%
COc1ccc(S(=O)(=O)N2CCCN(C)CC2)cc1,6.419%
COCC(=O)N1CCCN(CCC(C)SC)CC1 (stereo unspecified),-14.31%
Cc1cc(NC(=O)CSCC(=O)N2CCC2)no1,-0.9558%
CCNCC(O)COc1ccc(C)cc1OC (stereo unspecified),9.284%

Source: ChEMBL document CHEMBL3988442, “University of Dundee, Small-Polar-MMV Screening Library” (2021).